In patent US20260053861A1, “CELL COMPOSITIONS AND METHODS OF USING THE SAME” (THE REGENTS OF THE UNIVERSITY OF CALIFORNIA, priority 2022, published 2026) one finds z.score.t data, which are given here for one compound.

The experiment deals with hPSC-SCs.

Consider `Br.CN1[C@@H]2CC[C@H]1C[C@@H](OC(=O)C(O)c1ccccc1)C2` (stereo partly drawn) [Homatropine hydrobromide (R,S)], for which the z.score.t is recorded as −0.2278.
